This assay has as its system CD2F1 mice, L1210 leukemia ip, survival T/C. In words: NCI In Vivo Anticancer Drug Screen. Data for tumor model L1210 Leukemia (intraperitoneal) in CD2F1 (CDF1) mice. The settings on record: T/C endpoint: mean survival time, higher T/C = longer survival. In outline:
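Read-out first: treated-group measurement over vehicle-control measurement, expressed as a ratio. Animals bore a transplanted tumor line and were dosed with compound or vehicle.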

Setting [1] is: dose: 5.0 mg/kg/injection, schedule: Q01DX001 (ip), vehicle: saline.
The mark [2] stands for this setting: dose: 10.0 mg/kg/injection, schedule: Q01DX001 (ip), vehicle: saline.
[3] abbreviates: dose: 20.0 mg/kg/injection, schedule: Q01DX001 (ip), vehicle: saline.
[4] abbreviates: dose: 40.0 mg/kg/injection, schedule: Q01DX001 (ip), vehicle: saline.
[5] abbreviates: dose: 4.0 mg/kg/injection, schedule: Q01DX009 (ip), vehicle: dextrose.

Molecules are shown by their SMILES. The list shows only some results of the screen, not a fair sample: it gathers tests that were run many times, whatever their T/C, doses with no T/C, and many T/C values between a quarter and a half above the control. Other doses and runs of a compound stand elsewhere. T/C gives the treated animals as a percentage of the vehicle group. Some doses have a count of surviving animals in place of a T/C: the source holds a T/C of zero for them, seemingly a mark for toxic or unscored doses. Some doses without a T/C left all or most animals alive at the check, yet need not have been tolerated: the source hardly ever lists a survival T/C far under the control, and the zero likely stands for such cases as well. Survivors were counted at the toxicity check, usually on the fifth day, unless a day is given; later deaths do not show. Schedule codes are those of the source, taken here to give the interval after Q, in days (D) or hours (H), and the number of doses after X. Some schedule codes hold Z or #, which are not explained here. Where survival is the endpoint, this PubChem deposit counts one and a half times the control or more as active, and values a quarter to a half above the control carry no call in these data; other NCI protocols may use other cut-offs. Some entries were tested several times; the results are listed from low to high. Some T/C values are followed by the survivors on the day toxicity was checked, most often the fifth; without a count, all were alive then.

As to `NC1C2C(CC(=O)O)OCC=C3CN4CCC1(C(=O)C(=O)O)C4CC32` (centres undefined), the survivor count under setting [1] is reported as 0 of 6; the survivor count under setting [2] is reported as 0 of 6; the survivor count under setting [3] is on record as 0 of 6; the survivor count under setting [4] is 0 of 6; the survivor count (dose: 75.0 mg/kg/injection, schedule: Q01DX001 (ip), vehicle: saline) is reported as 0 of 6; the survivor count (dose: 80.0 mg/kg/injection, schedule: Q01DX001 (ip), vehicle: saline) is reported as 0 of 6. The survivor count reads like this: (dose: 150.0 mg/kg/injection, schedule: Q01DX001 (ip), vehicle: saline) 0 of 6; (dose: 300.0 mg/kg/injection, schedule: Q01DX001 (ip), vehicle: saline) 0 of 6.

As for `N=C(N)SCc1c2ccccc2c(CSC(=N)N)c2ccccc12`, the T/C is, setting by setting: (dose: 0.26 mg/kg/injection, schedule: Q#B X Z (ip), vehicle: saline) 131 % of control; (dose: 0.52 mg/kg/injection, schedule: Q#B X Z (ip), vehicle: saline) 141 and 143 % of control; (dose: 1.56 mg/kg/injection, schedule: Q01DX Z (ip), vehicle: saline) 130 % of control; (dose: 2.5 mg/kg/injection, schedule: Q01DX001 (ip), vehicle: saline) 130 % of control; (dose: 3.13 mg/kg/injection, schedule: Q01DX Z (ip), vehicle: saline) 143 % of control; (dose: 4.16 mg/kg/injection, schedule: Q#B X Z (ip), vehicle: saline) 133 % of control. Further, the T/C was 145 % of control under setting [1]; 144 % of control under setting [2]; 144 % of control under setting [3]; 142 % of control under setting [4]; 144 % of control (dose: 50.0 mg/kg/injection, schedule: Q01DX009 (ip), vehicle: saline); 127 % of control (dose: 50.0 mg/kg/injection, schedule: Q01DX Z (ip), vehicle: saline). The T/C reads like this: (dose: 50.0 mg/kg/injection, schedule: Q06HX008 (ip), vehicle: saline) 135 % of control; (dose: 100.0 mg/kg/injection, schedule: Q06HX004 (ip), vehicle: saline) 132 % of control; (dose: 100.0 mg/kg/injection, schedule: Q06HX008 (ip), vehicle: saline) 141 % of control; (dose: 160.0 mg/kg/injection, schedule: Q01DX001 (ip), vehicle: saline) 134 % of control; (dose: 200.0 mg/kg/injection, schedule: Q06HX004 (ip), vehicle: saline) 137 % of control; (dose: 250.0 mg/kg/injection, schedule: Q01DX001 (ip), vehicle: saline) 136 % of control. The T/C is, setting by setting: (dose: 400.0 mg/kg/injection, schedule: Q01DX001 (ip), vehicle: saline) 145 % of control; (dose: 400.0 mg/kg/injection, schedule: Q03HX008 (ip), vehicle: saline) 130 % of control [9 of 10 alive]; (dose: 400.0 mg/kg/injection, schedule: Q12HX002 (ip), vehicle: saline) 128 % of control; (dose: 500.0 mg/kg/injection, schedule: Q01DX001 (ip), vehicle: saline) 147 % of control; (dose: 2000.0 mg/kg/injection, schedule: Q01DX001 (ip), vehicle: saline) 142 % of control; (dose: 4000.0 mg/kg/injection, schedule: Q01DX001 (ip), vehicle: saline) 145 % of control. The survivor count is 6 of 6 (dose: 33.33 mg/kg/injection, schedule: Q#B X Z (ip), vehicle: saline); 3 of 6 (dose: 66.66 mg/kg/injection, schedule: Q#B X Z (ip), vehicle: saline); 4 of 6 (dose: 400.0 mg/kg/injection, schedule: Q01DX Z (ip), vehicle: saline); 4 of 6 (dose: 640.0 mg/kg/injection, schedule: Q01DX001 (ip), vehicle: saline); 6 of 6 (dose: 1600.0 mg/kg/injection, schedule: Q01DX010 (oral), vehicle: saline).

In the case of `O=S(=O)(O)c1ccccc1.O=S(=O)(O)c1ccccc1.[NH-]C1CCCCC1[NH-].[Pt+2]`, the T/C (dose: 0.25 mg/kg/injection, schedule: Q01DX009 (ip), vehicle: dextrose) was 125 % of control; the T/C (dose: 0.5 mg/kg/injection, schedule: Q01DX009 (ip), vehicle: dextrose) is 134 % of control; the T/C (dose: 1.0 mg/kg/injection, schedule: Q01DX009 (ip), vehicle: dextrose) was 148 % of control; the T/C (dose: 1.0 mg/kg/injection, schedule: Q04DX003 (ip), vehicle: dextrose) is 125 % of control; the T/C (dose: 2.0 mg/kg/injection, schedule: Q01DX001 (ip), vehicle: dextrose) was 128 and 135 % of control; the T/C (dose: 2.0 mg/kg/injection, schedule: Q04DX003 (ip), vehicle: dextrose) is 140 % of control. The T/C is 146 % of control (dose: 4.0 mg/kg/injection, schedule: Q01DX001 (ip), vehicle: dextrose); 148 % of control under setting [5]; 140 % of control (dose: 4.0 mg/kg/injection, schedule: Q04DX003 (ip), vehicle: other); 142 % of control (dose: 6.0 mg/kg/injection, schedule: Q01DX001 (ip), vehicle: dextrose); 126 and 148 % of control (dose: 8.0 mg/kg/injection, schedule: Q01DX001 (ip), vehicle: dextrose); 140 % of control (dose: 10.0 mg/kg/injection, schedule: Q01DX001 (ip), vehicle: dextrose). Moreover, the T/C runs as follows: (dose: 12.0 mg/kg/injection, schedule: Q01DX001 (ip), vehicle: dextrose) 145 % of control; (dose: 20.0 mg/kg/injection, schedule: Q01DX001 (ip), vehicle: dextrose) 145 % of control. Further, the survivor count is 6 of 6 under setting [5]; 5 of 6 (dose: 6.0 mg/kg/injection, schedule: Q01DX009 (ip), vehicle: dextrose); 5 of 6 (dose: 8.0 mg/kg/injection, schedule: Q01DX009 (ip), vehicle: dextrose); 6 of 6 (dose: 8.0 mg/kg/injection, schedule: Q04DX003 (ip), vehicle: other).

Consider `CCCCCCCCS.[Ni]`, for which the survivor count is reported as 2 of 6 (dose: 50.0 mg/kg/injection, schedule: Q01DX009 (ip), vehicle: other); 0 of 6 (dose: 100.0 mg/kg/injection, schedule: Q01DX009 (ip), vehicle: other); 0 of 6 (dose: 200.0 mg/kg/injection, schedule: Q01DX009 (ip), vehicle: other).

For the compound `CCC1(CC)C=CCC/C1=N\NS(=O)(=O)c1ccc(C)cc1`, under “dose: 400.0 mg/kg/injection, schedule: Q04DX003 (ip), vehicle: saline with Tween-80”, the survivor count is 6 of 6.

As to `CCC[CH2][Sn]1([CH2]CCC)[O]C2C(CO)OC(n3ccc(N)nc3=O)C2[O]1` (centres undefined), the T/C (dose: 3.12 mg/kg/injection, schedule: Q01DX009 (ip), vehicle: Klucel (hydroxypropylcellulose) (HPC)) was 125 % of control. Besides, the survivor count reads like this: (dose: 12.5 mg/kg/injection, schedule: Q01DX005 (ip), vehicle: other) 3 of 6; (dose: 12.5 mg/kg/injection, schedule: Q01DX009 (ip), vehicle: Klucel (hydroxypropylcellulose) (HPC)) 0 of 6; (dose: 25.0 mg/kg/injection, schedule: Q01DX005 (ip), vehicle: other) 0 of 6; (dose: 25.0 mg/kg/injection, schedule: Q01DX009 (ip), vehicle: Klucel (hydroxypropylcellulose) (HPC)) 0 of 6.
